Experiment [1] deals with T1, Human recombinant protein NCL (human, UniProt P19338 1-710).
T1 construct: Nucleolin, human, recombinant protein bought from Origene; No catalogue number, host, tag or limits are printed; also called nucleolin; source: bought: Origene
Put plainly: co-IP; in vitro binding assay: recombinant proteins CITED2, PRMT5, NCL and P300 put together in a test tube, immunoprecipitated with the indicated antibodies, immunoblotted; both purified. (In western blotting, separated proteins are transferred to a membrane and probed.)

Protein sequences, listed by entry. Tags and fused reporters are not part of them.
UniProt P19338: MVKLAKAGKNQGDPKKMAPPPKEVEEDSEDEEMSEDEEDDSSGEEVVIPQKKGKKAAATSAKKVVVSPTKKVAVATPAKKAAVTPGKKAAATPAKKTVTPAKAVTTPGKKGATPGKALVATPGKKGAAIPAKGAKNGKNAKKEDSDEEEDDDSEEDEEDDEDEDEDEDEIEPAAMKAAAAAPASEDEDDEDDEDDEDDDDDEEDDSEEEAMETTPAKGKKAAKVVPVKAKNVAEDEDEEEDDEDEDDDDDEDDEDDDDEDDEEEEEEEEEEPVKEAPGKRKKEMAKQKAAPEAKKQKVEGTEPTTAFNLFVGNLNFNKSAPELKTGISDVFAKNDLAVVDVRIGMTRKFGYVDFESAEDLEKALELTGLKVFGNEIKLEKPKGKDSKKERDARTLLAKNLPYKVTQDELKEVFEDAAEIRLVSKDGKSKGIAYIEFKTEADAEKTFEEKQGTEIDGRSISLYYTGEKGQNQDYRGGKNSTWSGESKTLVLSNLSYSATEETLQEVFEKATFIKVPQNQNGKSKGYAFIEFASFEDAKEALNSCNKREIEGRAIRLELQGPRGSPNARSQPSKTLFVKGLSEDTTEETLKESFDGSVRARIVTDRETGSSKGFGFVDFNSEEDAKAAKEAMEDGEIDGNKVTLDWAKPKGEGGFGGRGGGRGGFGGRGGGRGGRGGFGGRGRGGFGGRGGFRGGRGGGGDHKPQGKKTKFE
UniProt Q9BQA1: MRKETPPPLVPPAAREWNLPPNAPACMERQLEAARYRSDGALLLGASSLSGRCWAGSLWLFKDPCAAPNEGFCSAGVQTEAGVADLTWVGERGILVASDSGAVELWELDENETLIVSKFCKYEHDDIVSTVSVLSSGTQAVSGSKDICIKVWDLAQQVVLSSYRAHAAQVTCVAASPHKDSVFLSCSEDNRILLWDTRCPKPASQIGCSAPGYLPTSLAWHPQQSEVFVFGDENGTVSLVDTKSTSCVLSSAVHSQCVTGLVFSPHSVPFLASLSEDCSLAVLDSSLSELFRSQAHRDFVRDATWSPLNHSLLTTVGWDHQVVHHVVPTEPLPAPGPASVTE
UniProt Q09472: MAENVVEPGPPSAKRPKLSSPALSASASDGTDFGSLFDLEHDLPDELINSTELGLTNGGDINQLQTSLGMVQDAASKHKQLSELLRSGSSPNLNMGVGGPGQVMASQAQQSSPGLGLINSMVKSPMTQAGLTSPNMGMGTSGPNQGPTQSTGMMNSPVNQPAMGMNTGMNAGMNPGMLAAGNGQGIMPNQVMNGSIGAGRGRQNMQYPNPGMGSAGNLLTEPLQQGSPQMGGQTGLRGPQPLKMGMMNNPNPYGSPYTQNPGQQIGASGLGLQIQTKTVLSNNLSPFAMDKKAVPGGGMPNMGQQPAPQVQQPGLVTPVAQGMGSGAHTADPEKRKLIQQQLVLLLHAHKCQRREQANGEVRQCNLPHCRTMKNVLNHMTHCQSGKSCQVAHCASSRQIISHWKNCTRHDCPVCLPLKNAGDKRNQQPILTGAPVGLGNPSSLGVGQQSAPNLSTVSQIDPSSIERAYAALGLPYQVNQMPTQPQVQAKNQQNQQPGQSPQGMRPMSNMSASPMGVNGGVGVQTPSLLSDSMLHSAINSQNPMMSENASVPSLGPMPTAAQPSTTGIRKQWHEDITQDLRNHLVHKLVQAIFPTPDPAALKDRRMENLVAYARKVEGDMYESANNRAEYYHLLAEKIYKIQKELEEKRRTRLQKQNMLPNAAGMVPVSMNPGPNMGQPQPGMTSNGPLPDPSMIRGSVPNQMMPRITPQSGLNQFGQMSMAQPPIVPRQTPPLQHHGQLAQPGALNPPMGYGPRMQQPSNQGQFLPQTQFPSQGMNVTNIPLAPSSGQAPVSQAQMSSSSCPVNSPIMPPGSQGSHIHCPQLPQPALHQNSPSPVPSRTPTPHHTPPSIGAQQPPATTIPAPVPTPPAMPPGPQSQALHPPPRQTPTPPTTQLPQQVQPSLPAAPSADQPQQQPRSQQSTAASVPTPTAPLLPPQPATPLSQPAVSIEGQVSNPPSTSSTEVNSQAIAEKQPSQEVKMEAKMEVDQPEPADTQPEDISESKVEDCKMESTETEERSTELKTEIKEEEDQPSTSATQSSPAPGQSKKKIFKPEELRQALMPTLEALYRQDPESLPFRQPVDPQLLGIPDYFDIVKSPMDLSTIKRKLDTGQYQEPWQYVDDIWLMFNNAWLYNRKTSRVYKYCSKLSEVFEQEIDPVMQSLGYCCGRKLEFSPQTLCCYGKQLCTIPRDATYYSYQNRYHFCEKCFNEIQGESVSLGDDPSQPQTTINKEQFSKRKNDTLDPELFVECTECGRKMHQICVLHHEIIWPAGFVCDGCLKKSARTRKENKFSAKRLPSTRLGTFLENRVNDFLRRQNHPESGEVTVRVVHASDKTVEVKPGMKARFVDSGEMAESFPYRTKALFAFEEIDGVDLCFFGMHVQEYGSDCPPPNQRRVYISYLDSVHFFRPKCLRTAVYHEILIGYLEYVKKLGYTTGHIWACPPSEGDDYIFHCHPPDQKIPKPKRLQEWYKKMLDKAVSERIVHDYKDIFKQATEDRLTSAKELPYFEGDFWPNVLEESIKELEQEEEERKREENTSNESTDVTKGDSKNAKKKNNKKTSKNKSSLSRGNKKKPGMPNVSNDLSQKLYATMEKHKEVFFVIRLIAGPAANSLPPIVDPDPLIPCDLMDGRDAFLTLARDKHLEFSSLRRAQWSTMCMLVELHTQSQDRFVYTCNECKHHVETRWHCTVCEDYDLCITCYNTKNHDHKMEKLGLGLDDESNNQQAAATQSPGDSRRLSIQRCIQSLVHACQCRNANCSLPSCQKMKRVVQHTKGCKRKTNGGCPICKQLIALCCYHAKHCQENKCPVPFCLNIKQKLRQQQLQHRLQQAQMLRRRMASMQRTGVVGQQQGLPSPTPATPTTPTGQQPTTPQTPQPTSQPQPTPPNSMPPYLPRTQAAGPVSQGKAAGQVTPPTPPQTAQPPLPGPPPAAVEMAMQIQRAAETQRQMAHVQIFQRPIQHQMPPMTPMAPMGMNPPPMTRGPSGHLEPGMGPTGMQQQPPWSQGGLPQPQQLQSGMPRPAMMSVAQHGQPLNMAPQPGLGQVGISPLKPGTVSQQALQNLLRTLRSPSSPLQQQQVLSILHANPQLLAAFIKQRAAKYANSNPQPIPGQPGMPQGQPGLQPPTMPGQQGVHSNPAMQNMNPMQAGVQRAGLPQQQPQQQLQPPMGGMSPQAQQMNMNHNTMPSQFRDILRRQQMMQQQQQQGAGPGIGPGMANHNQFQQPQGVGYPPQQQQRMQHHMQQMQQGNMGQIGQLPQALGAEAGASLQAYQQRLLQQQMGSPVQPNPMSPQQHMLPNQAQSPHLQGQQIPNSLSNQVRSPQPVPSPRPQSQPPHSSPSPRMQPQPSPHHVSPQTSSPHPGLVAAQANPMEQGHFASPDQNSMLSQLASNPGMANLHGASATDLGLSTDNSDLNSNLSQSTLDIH

The target of the next experiment is Flag/SBP-NCL (UniProt P19338). Put plainly: co-IP; HEK293T cells cotransfected with Flag/SBP-NCL and CITED2 or si-CITED2; lysates immunoprecipitated with anti-Flag, immunoblotting.
Experiment [2] has as its target T2, CITED2, endogenous (human (endogenous in HEK293T and prostate cancer cell lines)) (UniProt Q99967).
T2 sequence: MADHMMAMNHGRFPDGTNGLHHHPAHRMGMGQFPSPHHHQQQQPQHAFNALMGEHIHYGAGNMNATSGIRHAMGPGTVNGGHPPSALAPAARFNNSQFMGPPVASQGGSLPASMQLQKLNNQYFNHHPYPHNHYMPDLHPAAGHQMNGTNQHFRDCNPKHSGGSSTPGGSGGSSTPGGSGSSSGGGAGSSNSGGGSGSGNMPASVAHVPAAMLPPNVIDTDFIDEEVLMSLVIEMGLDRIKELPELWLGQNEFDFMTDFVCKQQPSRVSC
The experiment in a line: SEC; FPLC of lysates of HEK293T cells transfected with pcDNA or CITED2; Superdex 200 10/300 GL, 4 °C; lysis buffer 20 mM Tris/HCl pH 7.5, 150 mM NaCl, 1 mM EDTA, 0.5% NP-40; eluates immunoblotted. For orientation: SEC sorts molecules by how far they enter the pores of the column.

The target of experiment [3] is T2, CITED2, endogenous (human (endogenous in HEK293T and prostate cancer cell lines)). Put plainly: co-IP; prostate cancer cell lysates immunoprecipitated with anti-CITED2 antibody or IgG, immunoblotting.
Experiment [4] has the same target. Put plainly: co-IP; endogenous proteins of HEK293T cells; immunoprecipitates with CITED2, PRMT5, NCL, WDR77 or RIOK1 antibodies, immunoblotting.
For experiment [5], the target named is T3, RIOK1, endogenous (human (endogenous in HEK293T and prostate cancer cell lines)) (UniProt Q9BRS2).
T3 sequence: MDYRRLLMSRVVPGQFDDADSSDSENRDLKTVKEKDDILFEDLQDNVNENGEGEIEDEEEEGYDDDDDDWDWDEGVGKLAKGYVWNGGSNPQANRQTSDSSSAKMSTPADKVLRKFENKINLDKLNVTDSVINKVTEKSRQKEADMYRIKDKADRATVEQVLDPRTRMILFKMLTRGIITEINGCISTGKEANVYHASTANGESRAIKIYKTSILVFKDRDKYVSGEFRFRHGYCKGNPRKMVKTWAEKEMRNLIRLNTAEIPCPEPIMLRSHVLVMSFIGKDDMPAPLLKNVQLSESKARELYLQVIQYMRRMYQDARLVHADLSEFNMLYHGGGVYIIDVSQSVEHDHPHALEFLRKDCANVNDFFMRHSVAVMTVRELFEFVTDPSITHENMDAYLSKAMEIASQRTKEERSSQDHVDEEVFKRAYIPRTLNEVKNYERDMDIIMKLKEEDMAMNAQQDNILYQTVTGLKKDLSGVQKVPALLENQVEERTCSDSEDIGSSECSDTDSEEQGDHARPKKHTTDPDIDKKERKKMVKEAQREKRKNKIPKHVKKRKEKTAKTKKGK
The experiment is described as above.

Experiment [6] concerns the target WDR77, endogenous (human (endogenous in HEK293T and prostate cancer cell lines)) (UniProt Q9BQA1). The experiment is described as above.
The target in experiment [7] is Nucleolin (NCL), endogenous (human (endogenous in HEK293T and prostate cancer cell lines)) (UniProt P19338). The experiment is described as above.

These are yes or no findings as the source states them, for the method shown. For some assays here: Binding seen in cells or lysates may run through a third protein. Some entries that bind do so weakly or less than the wild type.

Turning to “Human recombinant protein P300 (from UniProt Q09472 1-2414)”, the binding entry in experiment [1] is “binds”.
Turning to “p300, endogenous (from UniProt Q09472 1-2414)”, the binding entry with Flag/SBP-NCL is “binds”.
Take “WDR77, endogenous (from UniProt Q9BQA1 1-342)”: the binding result in experiment [2], in experiment [3] and in experiment [4] was “binds” throughout.

B1: RIOK1, endogenous (protein, UniProt Q9BRS2 1-568)
chain: MDYRRLLMSRVVPGQFDDADSSDSENRDLKTVKEKDDILFEDLQDNVNENGEGEIEDEEEEGYDDDDDDWDWDEGVGKLAKGYVWNGGSNPQANRQTSDSSSAKMSTPADKVLRKFENKINLDKLNVTDSVINKVTEKSRQKEADMYRIKDKADRATVEQVLDPRTRMILFKMLTRGIITEINGCISTGKEANVYHASTANGESRAIKIYKTSILVFKDRDKYVSGEFRFRHGYCKGNPRKMVKTWAEKEMRNLIRLNTAEIPCPEPIMLRSHVLVMSFIGKDDMPAPLLKNVQLSESKARELYLQVIQYMRRMYQDARLVHADLSEFNMLYHGGGVYIIDVSQSVEHDHPHALEFLRKDCANVNDFFMRHSVAVMTVRELFEFVTDPSITHENMDAYLSKAMEIASQRTKEERSSQDHVDEEVFKRAYIPRTLNEVKNYERDMDIIMKLKEEDMAMNAQQDNILYQTVTGLKKDLSGVQKVPALLENQVEERTCSDSEDIGSSECSDTDSEEQGDHARPKKHTTDPDIDKKERKKMVKEAQREKRKNKIPKHVKKRKEKTAKTKKGK
In the case of B1, the binding entry in experiment [2], in experiment [3] and in experiment [4] was “binds” in each case.

B2: Human recombinant protein CITED2 (natural protein, UniProt Q99967 1-270, looked up)
chain: MADHMMAMNHGRFPDGTNGLHHHPAHRMGMGQFPSPHHHQQQQPQHAFNALMGEHIHYGAGNMNATSGIRHAMGPGTVNGGHPPSALAPAARFNNSQFMGPPVASQGGSLPASMQLQKLNNQYFNHHPYPHNHYMPDLHPAAGHQMNGTNQHFRDCNPKHSGGSSTPGGSGGSSTPGGSGSSSGGGAGSSNSGGGSGSGNMPASVAHVPAAMLPPNVIDTDFIDEEVLMSLVIEMGLDRIKELPELWLGQNEFDFMTDFVCKQQPSRVSC
notes: CITED2, human, recombinant protein bought from Origene; No catalogue number, host, tag or limits are printed; source: bought: Origene
As for B2, the binding entry in experiment [5], in experiment [6] and in experiment [7] was “binds” each time.

(Values after PMC6173745, “Aberrant expression of CITED2 promotes prostate cancer metastasis by activating the nucleolin-AKT pathway” (Nature Communications, 2018).)
